PMC7082817
These are yes or no findings as the source states them, for the method shown. Binding seen in cells or lysates may run through a third protein. Binding calls can cover weak binding; strength is not graded here.

Amino acid sequences for entries named in this document (tags omitted).
UniProt P06493: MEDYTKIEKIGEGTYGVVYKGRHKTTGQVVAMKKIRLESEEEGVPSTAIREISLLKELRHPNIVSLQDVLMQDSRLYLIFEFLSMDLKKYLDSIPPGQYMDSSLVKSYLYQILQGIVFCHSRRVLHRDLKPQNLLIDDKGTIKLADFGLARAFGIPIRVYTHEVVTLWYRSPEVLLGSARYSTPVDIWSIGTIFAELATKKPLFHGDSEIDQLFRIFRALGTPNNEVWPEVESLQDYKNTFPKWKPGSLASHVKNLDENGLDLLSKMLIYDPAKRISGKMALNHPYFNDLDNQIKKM

Molecular target: Flag-tagged CDK1 (UniProt P06493)
Experiment: co-IP; HeLa cells cotransfected 16 h with Flag-tagged CDK1 and EGFP-fused RRSPPa variants; lysate on anti-FLAG magnetic beads; Western blot with antibodies against Flag and EGFP

Question: With “EGFP-RRSPPa (RRSP homologous protein of Photorhabdus asymbiotica fused to EGFP) (from UniProt A0ABX9SR30)” as the substance, how does the binding read?
Answer: binds
